Reference: publication PMC8221569

Chains of the proteins cited; added tags and fusions are not shown.
UniProt O95816: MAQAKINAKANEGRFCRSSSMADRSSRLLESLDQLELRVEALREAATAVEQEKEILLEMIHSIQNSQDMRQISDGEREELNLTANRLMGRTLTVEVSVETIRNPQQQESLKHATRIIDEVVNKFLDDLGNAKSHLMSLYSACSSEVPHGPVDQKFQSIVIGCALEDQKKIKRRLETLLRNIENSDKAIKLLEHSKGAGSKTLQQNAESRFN
UniProt P11142: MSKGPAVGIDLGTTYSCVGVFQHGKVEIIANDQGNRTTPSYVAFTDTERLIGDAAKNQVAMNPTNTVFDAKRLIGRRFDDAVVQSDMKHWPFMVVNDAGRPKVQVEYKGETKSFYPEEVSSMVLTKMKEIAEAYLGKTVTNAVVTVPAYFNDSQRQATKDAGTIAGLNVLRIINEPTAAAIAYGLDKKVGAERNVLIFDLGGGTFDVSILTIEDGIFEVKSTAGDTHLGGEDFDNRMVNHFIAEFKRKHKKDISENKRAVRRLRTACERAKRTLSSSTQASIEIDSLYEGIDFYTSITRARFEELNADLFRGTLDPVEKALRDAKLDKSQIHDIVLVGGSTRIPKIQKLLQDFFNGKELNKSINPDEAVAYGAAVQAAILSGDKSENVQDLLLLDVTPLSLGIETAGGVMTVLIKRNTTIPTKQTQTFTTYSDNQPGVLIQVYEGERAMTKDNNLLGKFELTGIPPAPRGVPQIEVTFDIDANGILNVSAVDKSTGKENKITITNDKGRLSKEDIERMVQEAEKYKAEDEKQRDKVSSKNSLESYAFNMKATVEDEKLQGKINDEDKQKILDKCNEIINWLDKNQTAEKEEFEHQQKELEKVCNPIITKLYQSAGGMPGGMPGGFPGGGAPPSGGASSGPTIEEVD

Legend:
[1] = target: T1, DNAJC9-MYC-Flag WT (human) (UniProt Q8WXX5); assay: affinity purification with mass spectrometry; triple SILAC; DNAJC9-Myc-Flag WT, 4A and control purifications on anti-Flag M2 beads from U-2-OS extracts; n = 2
T1 sequence: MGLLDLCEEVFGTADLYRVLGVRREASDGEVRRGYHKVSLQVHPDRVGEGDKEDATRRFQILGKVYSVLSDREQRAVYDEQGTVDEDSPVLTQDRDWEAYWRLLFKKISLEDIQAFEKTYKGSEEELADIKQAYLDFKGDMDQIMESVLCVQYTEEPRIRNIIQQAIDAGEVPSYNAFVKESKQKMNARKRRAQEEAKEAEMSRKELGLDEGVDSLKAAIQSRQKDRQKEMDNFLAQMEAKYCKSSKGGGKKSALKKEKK

[2] = target: T1, DNAJC9-MYC-Flag WT (human); assay: affinity purification with mass spectrometry; label-free; DNAJC9-Myc-Flag WT, J, 4A and control purifications on anti-Flag M2 beads from MNase-digested U-2-OS chromatin extracts; n = 6
[3] = target: T2, DNAJC9-Q224A-R227A-M238A-Y242A-MYC-Flag (4A) (human) (UniProt Q8WXX5); assay: affinity purification with mass spectrometry; triple SILAC; DNAJC9-Myc-Flag WT, 4A and control purifications on anti-Flag M2 beads from U-2-OS extracts; n = 2
T2 sequence: T1 sequence with Q224A, R227A, M238A, Y242A

binding [1] | binding [2] | binding [3] | Substance
binds |  |  | BAG2 (endogenous) (from UniProt O95816 1-211)
binds | binds |  | HSP7C (HSC70, endogenous) (from UniProt P11142 1-646)
 |  | no binding | MCM2 (endogenous) (from UniProt P49736 1-904)

Substitutions are numbered along the chain they refer to. No constants are given. Whether binding was seen depends on the method and setting. In cells and extracts the contact can be indirect. A yes stands for co-enrichment or nearness to the bait. Other partners may have been found. For some of these results: No binding means not detected with the bait. Where a sequence is shown, tags or fusion partners need not be part of it.
